{"sequences": {"note": "Protein sequences, listed by entry. Tags and fused reporters are not part of them. Lines headed by an entry give the natural chain unless they say otherwise; changes in a name come on top.", "UniProt Q495A1": "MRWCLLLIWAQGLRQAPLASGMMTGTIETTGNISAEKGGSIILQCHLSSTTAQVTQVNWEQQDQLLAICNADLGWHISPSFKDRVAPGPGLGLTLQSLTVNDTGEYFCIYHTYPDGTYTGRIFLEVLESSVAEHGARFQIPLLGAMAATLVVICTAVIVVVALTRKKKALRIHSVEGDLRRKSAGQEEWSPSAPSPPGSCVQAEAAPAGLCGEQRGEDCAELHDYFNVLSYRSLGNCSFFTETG", "UniProt Q9NZQ7": "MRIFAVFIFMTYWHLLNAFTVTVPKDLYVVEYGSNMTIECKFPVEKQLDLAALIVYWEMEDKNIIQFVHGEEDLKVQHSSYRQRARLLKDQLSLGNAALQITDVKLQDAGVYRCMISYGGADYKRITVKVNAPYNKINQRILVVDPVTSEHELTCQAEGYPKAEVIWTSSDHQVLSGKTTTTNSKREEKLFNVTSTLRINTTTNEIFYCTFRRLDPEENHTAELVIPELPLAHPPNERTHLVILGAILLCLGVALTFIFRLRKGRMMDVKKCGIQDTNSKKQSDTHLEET"}, "source": "patent US20240262915A1", "key": {"[1]": {"biological_target": "TIGIT-his (extracellular region of human TIGIT protein fused with his) (human) (UniProt Q495A1)", "assay": "BLI, Fortebio Octet RED96"}, "[2]": {"biological_target": "PD-L1 molecules (ELISA antigen of Example 1) (human) (UniProt Q9NZQ7)", "assay": "ELISA, subclone supernatant, binding to PD-L1"}, "[3]": {"biological_target": "TIGIT-his (extracellular region of human TIGIT protein fused with his) (human) (UniProt Q495A1)", "assay": "ELISA, subclone supernatant, binding to TIGIT"}}, "note": "These are yes or no findings as the source states them, for the method shown. Some binding calls cover weakened binding; strength is not graded here.", "data": [{"binder": "HuPL1642-T2353-ScFab (bispecific antibody, human IgG4 S228P, kappa) chain 1: DIQMTQSPSSLSASVGDRVTITCRTSQDIGNSLRWFQQKPGKAPKLLIHGATNLANGVPSRFSGSGSGTDFTLTISSLQPEDFATYYCLQHNEYPLTFGCGTKLEIKRTVAAPSVFIFPPSDEQLKSGTASVVCLLNNFYPREAKVQWKVDNALQSGNSQESVTEQDSKDSTYSLSSTLTLSKADYEKHKVYACEVTHQGLSSPVTKSFNRGECGGGGSGGGGSGGGGSGGGGSGGGGSGGGGSGGGGSGGGGSEVQLVESGGGLVQPGGSLRLSCAASGFTFSDHWMSWVRQAPGKCMEWIGNIQYDGSYTNYAPSLKNRFTISRDNAKNSLYLQMNSLRAEDTATYYCTRGHFRITMASMGASASVYWGQGTMVTVSSASTKGPSVFPLAPCSRSTSESTAALGCLVKDYFPEPVTVSWNSGALTSGVHTFPAVLQSSGLYSLSSVVTVPSSSLGTKTYTCNVDHKPSNTKVDKRVESKYGPPCPPCPAPEFLGGPSVFLFPPKPKDTLMISRTPEVTCVVVDVSQEDPEVQFNWYVDGVEVHNAKTKPREEQFNSTYRVVSVLTVLHQDWLNGKEYKCKVSNKGLPSSIEKTISKAKGQPREPQVYTLPPCQEEMTKNQVSLWCLVKGFYPSDIAVEWESNGQPENNYKTTPPVLDSDGSFFLYSRLTVDKSRWQEGNVFSCSVMHEALHNHYTQKSLSLSLGK chain 2: DIVMTQSPDSLAVSLGERVTMRCKSSQSLSWSENQNNYLSWYQQKPGQPPKLLIYGASIRESGVPDRFSGSGSGTDFTLTISSVQAEDVGVYYCQHNHGSFLPYTFGCGTKLEIKRTVAAPSVFIFPPSDEQLKSGTASVVCLLNNFYPREAKVQWKVDNALQSGNSQESVTEQDSKDSTYSLSSTLTLSKADYEKHKVYACEVTHQGLSSPVTKSFNRGECGGGGSGGGGSGGGGSGGGGSGGGGSGGGGSGGGGSGGGGSQVQLVQSGAEVAKPGASVKMSCKASGYTFTRNTMHWIKQAPGQCLEWIGFIDPHNTYTRYNQKFKDRATLTADTSASTAYMELSSLRSEDTAVYYCARWPMDYWGQGTLVTVSSASTKGPSVFPLAPCSRSTSESTAALGCLVKDYFPEPVTVSWNSGALTSGVHTFPAVLQSSGLYSLSSVVTVPSSSLGTKTYTCNVDHKPSNTKVDKRVESKYGPPCPPCPAPEFLGGPSVFLFPPKPKDTLMISRTPEVTCVVVDVSQEDPEVQFNWYVDGVEVHNAKTKPREEQFNSTYRVVSVLTVLHQDWLNGKEYKCKVSNKGLPSSIEKTISKAKGQPREPQVCTLPPSQEEMTKNQVSLSCAVKGFYPSDIAVEWESNGQPENNYKTTPPVLDSDGSFFLVSRLTVDKSRWQEGNVFSCSVMHEALHNHYTQKSLSLSLGK", "values": [{"measurement": "binding", "setting": "[1]", "value": "binds"}]}, {"binder": "SHS009PL-15 (antibody, V domains shown) VH: EVQLQESGPGLAKPSQTLSLTCSVTGYSITSDYWNWIRKFPGNKLEYMGYISYTGSTYYNPSLKRRVSITRDTSKNNYYLQLNSVTTEDTATYYCARYRDWPGYFDVWGAGTTVTVSS VL: DVQITQSPSYLAASPGETITINCRASKSIRKFLAWYQEKPGKTNKLLIYSGSTLQSGIPSRFSGSGSGTDFTLTISTLEPEDFAVYYCQHYNEYPFTFGGGTKLEIK", "values": [{"measurement": "binding", "setting": "[2]", "value": "binds"}]}, {"binder": "SHS009PL-16 (antibody, V domains shown) VH: QVQLQQSGAELARPGASVKMSCKASGYTFTRNTMHWIKQRPGQGLEWIGFIDPHNTYTRYNQKFKDRATLTADKSSSTAYMQLSSLSSEDSAVYYCARWPMDYWGQGTSVTVSS VL: DIVMTQFPSSLAVTAGEKVTMRCKSSQSLSWSENQNNYLSWYQQKQGQPPKLLIYGASIRESWVPDRFTGSGSGTDFTLTISNVHAEDLGVYFCQHNHGSFLPYTFGGGTKLEIK", "values": [{"measurement": "binding", "setting": "[2]", "value": "binds"}]}, {"binder": "SHS006-T-Hu17-31 (antibody, IgG4, V domains shown) VH: QVTLKESGPVLVKPTETLTLTCTFSGFSLRTYGLGVGWIRQPPGKALEWLANIWWDDDEYYNPSLKNRLTISKDTSKSQAVLTMTNMDPVDTATYYCARIARPHYYWDGRYILDVWGQGTTVTVSS VL: DIVMTQSPLSLPVTPGEPASISCRSSKSLLHSNGITYLSWYLQKPGQSPQLLIYQISNLASGVPDRFSGSGSGTDFTLKISRVEAEDVGVYYCMQFLEVPYTFGQGTKLEIK", "values": [{"measurement": "binding", "setting": "[1]", "value": "binds"}]}, {"binder": "SHS006-T-Hu23-53 (antibody, IgG4, V domains shown) VH: EVQLVESGGGLVQPGGSLRLSCAASGFTFSDHWMSWVRQAPGKTMEWIGNIQYDGSYTNYAPSLKNRFTISRDNAKNSLYLQMNSLRAEDTATYYCTRGHFRITMASMGASASVYWGQGTMVTVSS VL: DIQMTQSPSSLSASVGDRVTITCRTSQDIGNSLRWFQQKPGKAPKLLIHGATNLANGVPSRFSGSGSGTDFTLTISSLQPEDFATYYCLQHNEYPLTFGQGTKLEIK", "values": [{"measurement": "binding", "setting": "[1]", "value": "binds"}]}, {"binder": "SHS009PL-18 (antibody, V domains shown) VH: QVQLQQPGAELVRPGTSVNLSCKASGYSFTSNWMNWVKQRPGQGLEWIGMIHLYDSETKLNPNFQDKATLTVDKSSSIAYMQLSSPTSEDSAVYYCARSAGNYRFAYWGQGTLVTVSA VL: SIVMTQTPKFLPVTAEDRVTITCKASQSVSNEVAWYQQKPGQSPKLLIYSASSRYTGVPDRFIGGGSATDFTFTISSVQVEDLAVYFCQQHYSSPLTFGAGTKLELK", "values": [{"measurement": "binding", "setting": "[2]", "value": "binds"}]}, {"binder": "SHS006-17 (antibody, V domains shown) VH: QVTLKESGPGILQPSQTLSLTCTFSGFSLRTYGLGVGWIRQLSGKGLEWLANIWWDDDEYYNPSLKNRLTISKDTSNNQAFLKITNVDTADTATYYCARIARPHYYWDGRYILDVWGQGASVTVSS VL: DIMMTQSPLSVAVTPGESASISCRSSKSLLHSNGITYLSWYLQRPEKSPQLLIFQISNLASGVSDRFSGSGSGTDFTLIISKVETEDVGIYYCMQFLEVPYTFGAGTKLELK", "values": [{"measurement": "binding", "setting": "[3]", "value": "binds"}]}, {"binder": "SHS006-23 (antibody, V domains shown) VH: EVQLVESEGGLVQPGASVKLSCVGSGFSFSDHWMSWVRQTPGKTMEWIGNIQYDGSYTNYAPSLKNRFTISRDNAKNTLYLQMTNLRSEDTATYYCTRGHFRITMASMGASASVYWGQGVMVTVSS VL: DIQMTQSPSSLPTSLGDRVTITCRTSQDIGNSLRWFQQKPGKSPRLMIHGATNLANGVPSRFSGSRAGSDYSLTINSLESEDMAMYYCLQHNEYPLTFGSGTKLEIK", "values": [{"measurement": "binding", "setting": "[3]", "value": "binds"}]}]}
